No constants are given. Whether binding was seen depends on the method and setting. Binding seen in cells or lysates may run through a third protein. Some results given as binding are weak or reduced against the parent protein; the word gives no strength. Blank lines part the entries; values can stand above or below the molecule they belong to.
How the values were obtained:
[1] = biological target: T1, p190RhoGAP, endogenous in neonatal rat cardiomyocytes (rat (endogenous in NRCM)) (UniProt P81128); assay: co-IP; lysates of NRCM transduced with Ad-RGS3L-N460A, stimulated without or with 1 mM carbachol for 5 min; IP with anti-RGS3 or anti-p190RhoGAP antibody and protein-A-sepharose, 4 °C; buffer 50 mM Tris-HCl pH 7.4, 2 mM EDTA, 150 mM NaCl, 0.1% SDS, 1% Nonidet P-40, 10 mM NaF; immunoblot; carbachol increased the co-precipitate two-to-threefold
T1 sequence: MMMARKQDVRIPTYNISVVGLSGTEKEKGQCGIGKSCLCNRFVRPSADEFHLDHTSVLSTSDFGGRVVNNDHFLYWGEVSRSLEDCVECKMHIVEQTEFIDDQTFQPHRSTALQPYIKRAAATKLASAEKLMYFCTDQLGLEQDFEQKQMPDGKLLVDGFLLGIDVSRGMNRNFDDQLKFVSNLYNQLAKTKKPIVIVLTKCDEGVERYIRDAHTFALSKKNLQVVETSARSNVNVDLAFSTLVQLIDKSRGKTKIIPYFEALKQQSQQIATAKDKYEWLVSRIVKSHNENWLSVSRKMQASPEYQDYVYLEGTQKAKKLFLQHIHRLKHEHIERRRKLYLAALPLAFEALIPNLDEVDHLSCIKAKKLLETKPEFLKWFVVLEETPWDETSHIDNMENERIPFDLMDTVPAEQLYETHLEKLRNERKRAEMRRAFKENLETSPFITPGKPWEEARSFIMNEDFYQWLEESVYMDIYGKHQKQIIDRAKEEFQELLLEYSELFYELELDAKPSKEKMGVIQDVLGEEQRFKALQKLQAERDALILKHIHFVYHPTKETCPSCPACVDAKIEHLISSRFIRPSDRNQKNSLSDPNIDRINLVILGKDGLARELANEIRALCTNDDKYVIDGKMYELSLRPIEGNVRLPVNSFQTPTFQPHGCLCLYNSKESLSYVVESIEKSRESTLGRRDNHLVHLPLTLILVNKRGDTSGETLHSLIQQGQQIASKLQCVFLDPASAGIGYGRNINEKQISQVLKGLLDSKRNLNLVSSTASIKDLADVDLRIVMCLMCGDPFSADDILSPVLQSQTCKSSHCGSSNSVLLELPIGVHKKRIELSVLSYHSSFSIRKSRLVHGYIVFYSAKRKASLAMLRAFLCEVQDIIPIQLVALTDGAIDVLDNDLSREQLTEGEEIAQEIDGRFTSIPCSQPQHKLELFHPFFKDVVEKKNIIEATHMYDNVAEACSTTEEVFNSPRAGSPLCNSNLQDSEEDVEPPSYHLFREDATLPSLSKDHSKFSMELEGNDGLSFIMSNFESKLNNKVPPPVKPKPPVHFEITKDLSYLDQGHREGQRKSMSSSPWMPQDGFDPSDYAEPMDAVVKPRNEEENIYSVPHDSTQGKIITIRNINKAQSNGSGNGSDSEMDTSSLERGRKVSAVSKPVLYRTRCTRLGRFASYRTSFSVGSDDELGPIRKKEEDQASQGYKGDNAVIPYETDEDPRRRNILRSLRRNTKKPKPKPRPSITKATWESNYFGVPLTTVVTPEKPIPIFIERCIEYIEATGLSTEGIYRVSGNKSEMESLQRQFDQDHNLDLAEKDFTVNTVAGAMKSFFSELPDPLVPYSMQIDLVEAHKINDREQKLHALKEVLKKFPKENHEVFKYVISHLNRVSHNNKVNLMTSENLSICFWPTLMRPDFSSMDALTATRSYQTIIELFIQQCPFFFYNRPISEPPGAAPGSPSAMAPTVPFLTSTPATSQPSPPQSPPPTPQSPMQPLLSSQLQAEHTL

Chains of the proteins cited; added tags and fusions are not shown. Lines headed by an entry give the natural chain unless they say otherwise; changes in a name come on top. A line that says so, or that is headed by a name, gives the form on record, which may keep a tag or linker.
RGS3L-N460A (GAP-deficient mutant of the long isoform of regulator of G protein signaling 3) (P49796-1, form named): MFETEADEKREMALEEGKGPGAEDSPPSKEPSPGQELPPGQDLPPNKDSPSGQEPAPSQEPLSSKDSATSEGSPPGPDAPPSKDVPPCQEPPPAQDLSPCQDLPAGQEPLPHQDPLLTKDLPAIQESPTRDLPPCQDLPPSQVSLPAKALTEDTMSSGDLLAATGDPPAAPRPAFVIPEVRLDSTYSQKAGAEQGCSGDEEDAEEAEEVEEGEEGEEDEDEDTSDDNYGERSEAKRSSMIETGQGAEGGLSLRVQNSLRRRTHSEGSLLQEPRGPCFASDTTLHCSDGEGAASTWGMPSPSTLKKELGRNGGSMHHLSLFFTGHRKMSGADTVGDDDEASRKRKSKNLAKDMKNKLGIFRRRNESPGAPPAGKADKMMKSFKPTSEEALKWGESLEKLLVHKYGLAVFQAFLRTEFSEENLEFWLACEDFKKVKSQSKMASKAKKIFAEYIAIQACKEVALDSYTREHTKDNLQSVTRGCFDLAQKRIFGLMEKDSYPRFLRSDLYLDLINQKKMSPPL
UniProt P61586: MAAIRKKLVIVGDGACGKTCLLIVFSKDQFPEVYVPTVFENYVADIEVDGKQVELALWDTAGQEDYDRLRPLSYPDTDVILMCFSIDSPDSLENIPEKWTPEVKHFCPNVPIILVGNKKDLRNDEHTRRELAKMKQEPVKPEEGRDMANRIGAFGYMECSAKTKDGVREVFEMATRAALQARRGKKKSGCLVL

[2] = biological target: RGS3L-N460A (GAP-deficient mutant of the long isoform of regulator of G protein signaling 3) (UniProt P49796); assay: as above
[3] = biological target: constitutively active RhoAQ63L-GST (UniProt P61586); assay: pull-down; lysates of NRCM transduced with Ad-EGFP or Ad-RGS3L-N460A, without or with carbachol for 5 min; incubated 60 min at 4 °C with glutathione-sepharose magnetic beads coated with RhoAQ63L-GST or Rac1Q61L-GST; 50 mM Tris-HCl pH 7.4, 10 mM MgCl2, 150 mM NaCl, 1 mM DTT, 1% Triton X-100; endogenous p190RhoGAP detected by immunoblot; only the target purified
[4] = biological target: constitutively active RhoAQ63L-GST (UniProt P61586); assay: pull-down; lysates of HEK-293 cells transfected with p190RhoGAP, with or without RGS3L-N460A, RGS3L or RGS3S; incubated 60 min at 4 °C with glutathione-sepharose magnetic beads coated with RhoAQ63L-GST or Rac1Q61L-GST; 50 mM Tris-HCl pH 7.4, 10 mM MgCl2, 150 mM NaCl, 1 mM DTT, 1% Triton X-100; p190RhoGAP detected by immunoblot; only the target purified

binding [1]: binds
Molecule: RGS3L-N460A (GAP-deficient mutant of the long isoform of regulator of G protein signaling 3) (from UniProt P49796-1 1-519)

binding [2]: binds
binding [3]: binds
B1: p190RhoGAP, endogenous in neonatal rat cardiomyocytes (protein, UniProt P81128 1-1499)
chain: T1 sequence

binding [4]: binds
B2: p190RhoGAP, overexpressed in HEK-293 cells (protein, UniProt P81128 1-1499)
chain: T1 sequence
